According to the supplement of paper PMC11150407:
About 45 (2%) of roughly 3,000 compounds showed an effect of 50% or more. The list shows a part of the results.

Each molecule was assayed on MOLM1 and UCSD/AML1 (averaged) (assay: cell viability relative to DMSO control (POC); higher = less growth inhibition). Settings: 1 µM; 72 h.
Description: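 Primary viability screen in the 3q26 EVI1-high AML cell lines MOLM1 and UCSD/AML1, compounds at 1 uM for 72 h. ATP CellTiter-Glo read-out given as percent viable over DMSO control (POC), averaged over duplicates. This mapping covers the TimTec NDL-3000 natural derivative library, whose compounds are identified by TimTec catalogue codes (ST...).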
Work on CC(C)(O)C#Cc1ccc2c3c(cccc13)C(=O)OC2=O yielded a cell viability of 97.8%.
In the case of COc1cc(OC)cc(C(=O)N2CCN(Cc3ccccc3)CC2)c1, the cell viability is reported as 99.7%.
COc1cc(NC(=O)Cn2c(=O)cc(C(=O)N3CCCC3)c3ccccc32)cc(OC)c1 gave a cell viability of 89.7%.
Molecule COc1cc(OC)cc(C(=O)Nc2ccc3c(c2)COC3=O)c1 has a cell viability of 95.3%.
O=c1cc(-c2ccc(Cl)cc2)oc2c(Cl)cc(Cl)cc12 showed a cell viability of 114%.
Molecule O=C(Nc1ncnc2c1ncn2C1OC(COC(=O)c2ccccc2Br)C(OC(=O)c2ccccc2Br)C1OC(=O)c1ccccc1Br)c1ccccc1 (stereo not given) has a cell viability of 90.4%.
Molecule Cc1ccc(C(CC(=O)O)C2CCOC(C)(C)C2)cc1 (stereo not given) has a cell viability of 97.9%.
In the case of COc1ccccc1C(=O)NCCc1c(C)[nH]c2c(C)ccc(F)c12, the cell viability is reported as 95.5%.
Molecule COc1cc(/C=C/C(=O)c2ccc(C(=O)/C=C/c3cc(OC)c(OC)c(OC)c3)cc2)cc(OC)c1OC has a cell viability of 106%.
CCCCOC(=O)c1cc(=O)[nH]c(=O)[nH]1 showed a cell viability of 89.1%.
For CCOC(=O)/C(C#N)=C\c1ccc(OC)c(OC)c1, the cell viability was 95.7%.
In the case of CN(C)c1ccc(C(=O)N2CCc3ccccc3C2)cc1, the cell viability is reported as 96.5%.
With N[C@@H](Cc1ccccc1)C(=O)Nc1ccc2ccccc2c1 the cell viability was 100%.
CC(=O)N/C(=C/c1ccccc1)C(=O)NCc1ccco1 showed a cell viability of 105%.
For COc1ccc(C(=O)Nc2cnn(C(C)C)c2)cc1OC, the cell viability was 107%.
For C=CCNC(=O)C(=O)NCCc1c[nH]c2ccccc12, the cell viability was 98.1%.
Cc1cccc(NC(=O)CSc2nc3c(=O)[nH]cnc3n2C)c1 gave a cell viability of 107%.
With CNCC(O)c1cccc(O)c1 (stereo not given) the cell viability was 107%.
O=c1c(-c2ccccc2)c(O)c2ccccc2n1-c1ccccc1 was tested, and the cell viability was 97.5%.
For COc1ccc(NCCC(=O)c2cc(OC)c(OC)c(OC)c2)cc1, the cell viability was 81.1%.
For CC(=O)c1ccc(N/C=C2\C(=O)C(O)=C(C(C)C)c3cc(C)c(-c4c(C)cc5c(c4O)/C(=C/Nc4ccc(C(C)=O)cc4)C(=O)C(O)=C5C(C)C)c(O)c32)cc1, the cell viability was 104%.
For Cn1c(=O)c2ccccc2n(CC(=O)N2CCc3ccccc3C2)c1=O, the cell viability was 107%.
Molecule CC(=O)NCCOc1cccc2c1N(C(=O)c1ccc3c(c1)OCO3)CCC2 has a cell viability of 94.2%.
FC(F)(F)c1cccc(Nc2ncnc3ccccc23)c1 showed a cell viability of 80.3%.
With CCCNC(=O)c1cc(=O)n(CC(=O)Nc2ccc3c(c2)OCCO3)c2ccccc12 the cell viability was 98.8%.
Molecule NC(COCc1ccccc1)C(=O)O (stereo not given) has a cell viability of 106%.
In the case of CCOC(=O)c1ccc(NC(=O)/C=C/C(=O)O)cc1, the cell viability is reported as 102%.
Molecule CCOC(=O)c1cn(-c2ccc(F)cc2F)c2nc(Cl)c(F)cc2c1=O has a cell viability of 94.8%.
COc1cc(/C=C2\SC(=Nc3ccccc3)N(c3ccccc3)C2=O)cc(OC)c1O was tested, and the cell viability was 102%.
CCC/C(O)=C1\C(=O)CCCC1=NCCc1c(C)[nH]c2ccc(C)cc12 showed a cell viability of 94.9%.
COc1ccc(C(C)=O)c(O)c1OC was tested, and the cell viability was 93.4%.
COc1ccc(NC(=O)Cn2c(=O)cc(C(=O)N3CCOCC3)c3ccccc32)cc1Cl showed a cell viability of 96.7%.
For COc1ccc(C(=O)Nc2ccc(-c3nc4cc(Cl)cc(Cl)c4o3)cc2)cc1OC, the cell viability was 104%.
With CC(NC(=O)c1ccccc1)C(=O)O (stereo not given) the cell viability was 99.5%.
With COc1ccc2[nH]c(C)c(CCNC(=O)c3ccc(F)cc3)c2c1 the cell viability was 96.8%.
Cc1cc2c(cc1S(=O)(=O)N1CCCC1C(=O)O)NC(=O)CO2 (stereo not given) was tested, and the cell viability was 99.9%.
With CC(=O)Nc1ccc(NC(=O)Cn2c(=O)cc(C(=O)N3CCOCC3)c3ccccc32)cc1 the cell viability was 96.3%.
CC(C)(C)c1ccc(C(=O)NCC(=O)O)cc1 was tested, and the cell viability was 95.9%.
COc1ccc(/C=C/C(=O)c2ccc(O)cc2C)cc1 was tested, and the cell viability was 22.5%.
Molecule CCc1ccc2oc(=O)cc(CN3CCN(Cc4ccc(OC)c(OC)c4OC)CC3)c2c1 has a cell viability of 61.1%.
Cc1cccc(Cn2c(SCc3ccccc3Cl)nc3c2c(=O)[nH]c(=O)n3C)c1 showed a cell viability of 99.7%.
For COc1ccc2[nH]c(C)c(CCNC(=O)c3ccc(C)c([N+](=O)[O-])c3)c2c1, the cell viability was 96.9%.
Molecule Nc1ncnc2c1ncn2C1OC(COP(=O)(O)OP(=O)(O)O)C(O)C1O (stereo not given) has a cell viability of 107%.
Work on Cc1nc2c(nc(SCc3nc(-c4ccccc4C)oc3C)n2C)c(=O)[nH]1 yielded a cell viability of 102%.
CC(=O)Nc1cc2c(ncn2C(C)=O)c(=O)[nH]1 gave a cell viability of 105%.
Work on CCc1ccc2oc(-c3ccccc3)cc(=NCC(=O)NCC(=O)O)c2c1 yielded a cell viability of 102%.
Work on CCOC(=O)c1ccc2[nH]c(-c3ccccc3)cc(=O)c2c1 yielded a cell viability of 7.45%.
In the case of COC(=O)c1c(O)cc(O)cc1O, the cell viability is reported as 112%.
Work on COc1cccc(C(=O)NCCc2c(C)[nH]c3ccccc23)c1 yielded a cell viability of 96.3%.
Cc1ccc2occ(C3Nc4ccccc4NC4=C3C(=O)CC(c3ccccc3Cl)C4)c(=O)c2c1 (stereo not given) gave a cell viability of 117%.
In the case of COc1ccc(NC(=O)CSc2nc3c(=O)[nH]cnc3n2C)cc1OC, the cell viability is reported as 102%.
COc1cc(C2NCCc3c2[nH]c2ccccc32)ccc1OC(C)C (stereo not given) showed a cell viability of 96.1%.
COc1ccc(NC(=O)CSc2nc3c(=O)[nH]cnc3n2-c2ccc(C)cc2)c(OC)c1 was tested, and the cell viability was 102%.
CC(=O)Nc1ccc(NC(=O)/C=C/c2ccccc2)cc1 showed a cell viability of 98.3%.
COc1cc(C(=O)N2CCCc3cccc(OCCNC(C)=O)c32)cc(OC)c1OC gave a cell viability of 98.7%.
CCOC(=O)CNC(=O)c1cc(Br)ccc1OCC(C)C was tested, and the cell viability was 86.8%.
CC(=O)Nc1ccc(S(=O)(=O)N2CCCC2C(=O)O)cc1 (stereo not given) showed a cell viability of 105%.
In the case of Cc1nc2cccc(C(=O)NCCc3c(C)[nH]c4ccc(OC(F)(F)F)cc34)c2o1, the cell viability is reported as 112%.
COc1cc(Cc2nccc3cc(OC)c(OC)cc23)c(NC(=O)CSc2ncccc2C(=O)O)cc1OC showed a cell viability of 95.2%.
With COC(=O)C1=C(C)NC2=C(C(=O)CC(c3ccc(OC)c(OC)c3)C2)C1c1cc(OC)c(OC)c(OC)c1 (stereo not given) the cell viability was 101%.
COC(=O)c1ccc(C2C(C(=O)OC(C)C)=C(N)Oc3c2oc(CO)cc3=O)cc1 (stereo not given) gave a cell viability of 101%.
Molecule CCN(CC)C(=O)c1cc(=O)n(CC(=O)Nc2cccc(Cl)c2)c2ccccc12 has a cell viability of 92.1%.
COc1cc(C(=O)NC2Cc3ccccc3NC2=O)cc(OC)c1OC (stereo not given) gave a cell viability of 109%.
With O=C(O)/C=C/c1ccccc1OCc1ccccc1 the cell viability was 102%.
Cc1cc(C)c(NC(=O)Cn2c(=O)cc(C(=O)NCc3ccccc3)c3ccccc32)c(C)c1 was tested, and the cell viability was 70.8%.
COc1cc(C(=O)Nc2cccc(-c3nncn3C)c2)cc(OC)c1OC gave a cell viability of 107%.
Molecule Cc1ccc2c(CN3CCN(Cc4ccc(Br)cc4F)CC3)cc(=O)oc2c1 has a cell viability of 100%.
COc1ccc(/C=C2\Oc3ccc(Cl)cc3C2=O)cc1OC gave a cell viability of 95.8%.
Molecule O=C(O)/C=C/c1cccc(Cl)c1 has a cell viability of 96.5%.
CC(C)OC(=O)COc1ccc2c(=O)c(-c3ccc(Cl)cc3)coc2c1 gave a cell viability of 96.9%.
Work on CCOc1cc2c(cc1OCC)C(c1ccc(Br)cc1)NCC2 (stereo not given) yielded a cell viability of 83.4%.
CCOC(=O)/C(C#N)=C/c1ccccc1Br showed a cell viability of 104%.
C/C=C/c1ccc(OCC(=O)O)c(OC)c1 gave a cell viability of 100%.
For O=C(Nc1c(C(=O)Nc2ccccc2)c2ccccc2n(Cc2ccc(F)cc2)c1=O)c1ccccc1, the cell viability was 94.1%.
Work on Cc1cc2c(C(C)C)c(O)c(O)c(C=Nc3cccc(N4CCCC4=O)c3)c2c(O)c1-c1c(C)cc2c(C(C)C)c(O)c(O)c(C=Nc3cccc(N4CCCC4=O)c3)c2c1O yielded a cell viability of 92%.
Cc1cc(=O)n(C)c2ccccc12 gave a cell viability of 106%.
For Cc1cc(=O)oc2cc(OC(C)C(=O)O)ccc12 (stereo not given), the cell viability was 89.6%.
With O=C(Cn1c(=O)cc(C(=O)NCc2ccccc2)c2ccccc21)Nc1ccccc1 the cell viability was 93.5%.
c1ccc(-c2csc(N3CCc4ccccc4C3)n2)cc1 gave a cell viability of 104%.
CCc1ccc2oc(=O)cc(CN3CCN(Cc4nc(-c5ccc(C)cc5)oc4C)CC3)c2c1 was tested, and the cell viability was 96.3%.
CCCNC(=O)c1cc(=O)n(CC(=O)Nc2ccc(F)cc2C)c2ccccc12 showed a cell viability of 103%.
In the case of CCOc1ccc(-c2nc(CSc3nc4c(=O)[nH]cnc4n3C)c(C)o2)cc1OC, the cell viability is reported as 118%.
For CCOC(=O)C(C)Sc1nc(-c2ccccc2)cc(-c2ccccc2)c1C#N (stereo not given), the cell viability was 96.6%.
Molecule Cn1c(=O)c2c(nc(NCCOc3ccc(Cl)cc3)n2C)n(C)c1=O has a cell viability of 106%.
In the case of COc1cc(OC)cc(C(=O)NCCSCc2ccco2)c1, the cell viability is reported as 90.2%.
Molecule CCc1ccc(-c2cc(-c3cc(OC)c(OC)c(OC)c3)[nH]c(=O)c2C#N)cc1 has a cell viability of 96.9%.
Molecule O=C(O)c1c[nH]c2ccccc12 has a cell viability of 102%.
CCOC(=O)C(Cc1c[nH]c2ccccc12)NC(=O)COc1ccc(Br)cc1 (stereo not given) gave a cell viability of 91.5%.
Molecule COC(=O)C1(C)CCC2(C)CCC3(C)C(=CCC4C5(C)CCC(O)C(C)(C)C5CCC43C)C2C1 (stereo not given) has a cell viability of 96.6%.
With COc1ccc(Cl)cc1NC(=O)CSc1nc2c(=O)[nH]cnc2n1-c1ccccc1 the cell viability was 83.7%.
In the case of Cc1ccc2c(CN3CCN(CC(=O)Nc4ccc(C)c(F)c4)CC3)cc(=O)oc2c1, the cell viability is reported as 89.1%.
O=c1[nH]cnc2n[nH]nc12 was tested, and the cell viability was 93.1%.
Molecule O=C(O)c1cccc(Nc2nc(-c3ccc(Cl)cc3)nc3ccccc23)c1 has a cell viability of 90%.
In the case of COC(=O)CCC1(C(=O)OC)CC2(CC2)N=N1 (stereo not given), the cell viability is reported as 98.8%.
COc1cc(C(=O)Oc2ccccc2)cc(OC)c1OC gave a cell viability of 108%.
With COc1ccc2[nH]cc(CCNC(=O)c3nn(-c4ccccc4)nc3C)c2c1 the cell viability was 107%.
Molecule CC(=O)CCC(=O)OC1CC(n2cnc3c(=O)[nH]c(NC(=O)C(C)C)nc32)OC1OP(=O)(O)Oc1ccc(Cl)cc1 (stereo not given) has a cell viability of 92.2%.
With COc1cc(/C=C/C(=O)c2cn(C)nc2C)cc(OC)c1OC the cell viability was 100%.
O=C(CNC(=O)c1ccccc1)OCC(=O)c1ccc(OC(=O)c2ccccc2)cc1 gave a cell viability of 85.1%.
Molecule Cc1ccc(C)c(OCCn2cc(/C=C(\C#N)C(=O)N3CCc4ccccc4C3)c3ccccc32)c1 has a cell viability of 98.4%.
Molecule CC(=O)NC1=C(NCCc2c[nH]c3ccccc23)C(=O)c2ccccc2C1=O has a cell viability of 98.9%.
Molecule CCC(=O)NCCc1c[nH]c2ccc(Cl)cc12 has a cell viability of 99.2%.
CC(=O)Oc1cc2oc3c4ccccc4oc(=O)c3c2cc1OC(C)=O gave a cell viability of 102%.
Work on COc1cc(C(=O)CCNc2ccc(OCc3ccccc3)cc2)cc(OC)c1OC yielded a cell viability of 94.4%.
CCOC(=O)C1CCN(CNC(=O)c2ccc(OC)c(OC)c2)CC1 was tested, and the cell viability was 98.2%.
